These are yes or no findings as the source states them, for the method shown. Binding seen in cells or lysates may run through a third protein. These calls come from enrichment with a bait or labelling near it, and not all partners need be listed.
Target: MBP-KPNA7 (wild type) (human) (UniProt A9QM74)
Test: affinity purification with mass spectrometry; 40 μg MBP-KPNA7 (heavy) or MBP (light) on magnetic amylose resin, SILAC nuclear lysates of iPSC-derived neurons, with 0.5 μM his-Importin β; 3 hours at 4 °C; LC-MS/MS; only the target purified

Chains of the proteins cited; added tags and fusions are not shown.
UniProt A9QM74: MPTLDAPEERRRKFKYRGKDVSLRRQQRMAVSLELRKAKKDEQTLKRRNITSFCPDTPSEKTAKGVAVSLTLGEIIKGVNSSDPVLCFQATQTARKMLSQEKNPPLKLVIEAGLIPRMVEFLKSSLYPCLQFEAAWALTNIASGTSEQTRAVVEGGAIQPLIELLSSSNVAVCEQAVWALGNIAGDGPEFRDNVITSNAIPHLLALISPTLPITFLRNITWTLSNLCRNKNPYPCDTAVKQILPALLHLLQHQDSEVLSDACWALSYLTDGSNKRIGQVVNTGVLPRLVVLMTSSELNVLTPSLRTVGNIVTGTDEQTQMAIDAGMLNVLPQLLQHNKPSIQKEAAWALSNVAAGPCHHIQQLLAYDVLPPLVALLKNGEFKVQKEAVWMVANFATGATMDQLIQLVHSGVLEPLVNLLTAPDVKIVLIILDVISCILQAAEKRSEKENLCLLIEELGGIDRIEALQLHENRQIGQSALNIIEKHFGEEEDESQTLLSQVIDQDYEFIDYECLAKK

B1: hnRNP R (endogenous, iPSC-derived neurons) (protein, UniProt O43390 1-633)
chain: MANQVNGNAVQLKEEEEPMDTSSVTHTEHYKTLIEAGLPQKVAERLDEIFQTGLVAYVDLDERAIDALREFNEEGALSVLQQFKESDLSHVQNKSAFLCGVMKTYRQREKQGSKVQESTKGPDEAKIKALLERTGYTLDVTTGQRKYGGPPPDSVYSGVQPGIGTEVFVGKIPRDLYEDELVPLFEKAGPIWDLRLMMDPLSGQNRGYAFITFCGKEAAQEAVKLCDSYEIRPGKHLGVCISVANNRLFVGSIPKNKTKENILEEFSKVTEGLVDVILYHQPDDKKKNRGFCFLEYEDHKSAAQARRRLMSGKVKVWGNVVTVEWADPVEEPDPEVMAKVKVLFVRNLATTVTEEILEKSFSEFGKLERVKKLKDYAFVHFEDRGAAVKAMDEMNGKEIEGEEIEIVLAKPPDKKRKERQAARQASRSTAYEDYYYHPPPRMPPPIRGRGRGGGRGGYGYPPDYYGYEDYYDDYYGYDYHDYRGGYEDPYYGYDDGYAVRGRGGGRGGRGAPPPPRGRGAPPPRGRAGYSQRGAPLGPPRGSRGGRGGPAQQQRGRGSRGSRGNRGGNVGGKRKADGYNQPDSKRRQTNNQQNWGSQPIAQQPLQQGGDYSGNYGYNNDNQEFYQDTYGQQWK
binding: binds
